Assay results published in PubChem BioAssay AID1347076 (National Center for Advancing Translational Sciences (NCATS), 2019).
Among all 400,000 compounds or so, about 13,000 (3.2%) were called active. Inconclusive means that the source gave no clear call. Such entries were picked first, then a sample of the others. Calls follow the shape of the dose curve; as a rule, active = well fitted cell-killing curve with a large enough effect; inconclusive = small, poorly fitted or top-dose-only effect, or effect the other way; inactive = flat fitted curve, though single readings scatter. Where the call is inconclusive, the potency comes from a doubtful curve fit.

experiment: qHTS assay for MDR1-selective chemotherapeutics: Primary screen using the drug-selected MDR subline cells KB-V1; settings: KB-V1 MDR cells viability, CellTiter-Glo, 72 h; series mostly up to 46.1 µM; also: nearly all actives have a fitted effect of over 60% in size
Method in brief: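 Luminescent ATP read-out (CellTiter-Glo, 10 min) measures survival of drug-selected KB-V1 MDR cells after 72 h, 37 degrees C compound exposure. Medium: phenol-red-free DMEM, 10% FBS. Values from fitted concentration-response curves.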
Potency is read from the fitted curve at half-maximal effect.

Structure (SMILES)	Potency
O=C(c1ccc2nccnc2c1)N1CCN(c2ccccc2)CC1	inconclusive: 29.1 µM [rising, single point]
CC(C(=O)N1CCCCC1)N1CCN(S(=O)(=O)c2ccc(Cl)cc2)CC1 (centres undefined)	inactive
Cc1cc2cc(C(c3nnnn3C(C)(C)C)N(Cc3ccco3)CC3CCCO3)c(=O)[nH]c2cc1C (centres undefined)	inconclusive: 6.31 µM [cytotoxic, full curve]
O=C(NNc1cc(N2CCCC2)nc(N2CCCC2)n1)c1ccc([N+](=O)[O-])cc1	inconclusive: 1.46 µM [cytotoxic, partial curve]
O=C(Nc1nnc(-c2cccs2)o1)c1cc(-c2ccccc2)nc2ccccc12	inconclusive: 25.9 µM [cytotoxic, single point]
CN(C)C(=O)c1cc(C(=O)c2ccc(F)cc2F)c[nH]1	inactive
COc1ccc(CNc2nc3c(-c4ccc(C)cc4)nnn3c3ccccc23)cc1	inconclusive: 16.4 µM [rising, single point]
Brc1ccc2c(c1)[C@H]1OCC[C@H]1[C@@H](c1cccs1)N2	inconclusive: 0.013 µM [cytotoxic, full curve, poor fit]
CCOc1ccc(NC(=O)CC2C(=O)N(c3ccc(F)cc3)C(=O)N2CCc2sccc2C)cc1 (centres undefined)	inconclusive: 16.4 µM [cytotoxic, single point]
COc1cc(C=O)c(-c2c(C=O)cc(OC)c3c2OCO3)c2c1OCO2	inconclusive: 29.1 µM [rising, single point]
Fc1ccccc1N1CCN(c2ncnc3c2nc2n3CCCCC2)CC1	inconclusive: 16.4 µM [cytotoxic, single point]
O=C(COC(=O)c1ccc(OC(F)(F)F)cc1)Nc1ncccn1	inconclusive: 16.4 µM [cytotoxic, single point]
COc1cccc(C=NNc2nc3ccccc3s2)c1OC	inconclusive: 23.1 µM [cytotoxic, single point]
COc1ccc(N2C(=O)C(CC(=O)Nc3ccc(F)cc3)N(CCc3cccs3)C2=O)cc1 (centres undefined)	active: 18.4 µM
Cc1noc(C)c1C(=O)N1CCC(CO)(Cc2ccccc2)CC1	inactive
N#Cc1c(NCCCO)nc(-c2ccccc2)c2c1CCCC2	inactive
COc1ccc(C2CC(c3ccccc3)=NN2C(=O)COC(=O)c2cccc(S(=O)(=O)N(C)C)c2)cc1 (centres undefined)	active: 3.66 µM
Cc1cc(C)n2nc(-c3ccc(Cl)cc3)nc2n1	inconclusive: 7.31 µM [rising, partial curve]
CCCCN(CC)CCNC(=O)c1cc2c(=O)[nH]c3ccc(C)cc3c2s1	inactive
CCOC(=O)C(C)(C)N(Cc1cccc(C)c1)S(=O)(=O)c1cccc([N+](=O)[O-])c1	active: 7.31 µM
Cn1cc(C(=O)NC2CCCCC2)c(=O)c2cc(S(=O)(=O)N3CCCC3)ccc21	active: 9.2 µM
CCOc1ccc(NC(=O)CN(C)C(=O)c2ccc(COc3ccccc3)cc2)cc1OCC	active: 9.2 µM
CCOC(=O)c1c(NC(=O)CSc2cn(CCNC(=O)c3ccc(OC)c(OC)c3)c3ccccc23)sc2c1CCC2	inactive

Structure (SMILES)	Potency
O=C(c1cccc(S(=O)(=O)N2CCCC2)c1)N1CCN(c2ncccn2)CC1	inactive
CCN(c1ccccc1)S(=O)(=O)c1cccc(C(=O)NCCN2CCOCC2)c1	inactive
O=C(CSc1nnnn1C1CC1)N1CCN(c2ccccc2F)CC1	inconclusive: 18.4 µM [cytotoxic, single point]
COC(=O)C1CCN(Cc2ccc(OCCCN3CCN(c4ccc([N+](=O)[O-])cc4)CC3)cc2)CC1	inconclusive: 18.4 µM [cytotoxic, single point]
O=C1c2c(O)ccc(O)c2C(=O)c2c(NCCNCCO)ccc(NCCNCCO)c21	active: 20.6 µM
COc1ccc(C(=O)C2CCCN(C(=O)c3ccccc3C(C)=O)C2)cc1F (centres undefined)	inactive
CCc1nc(SCC(=O)c2ccc(C)c(C)c2)n[nH]1	inconclusive: 29.1 µM [cytotoxic, single point]
CCOC(=O)c1cnc(-n2nc(C)cc2C)nc1Nc1ccc(O)cc1	inconclusive: 14.6 µM [cytotoxic, partial curve, poor fit]
CCOC(=O)Nc1ccc2c(c1)C(=NNC(N)=S)c1ccccc1-2	active: 23.1 µM
COc1ccc(N2C(=O)C3CCCN3C2c2cccc(OC)c2OC)cc1 (centres undefined)	inactive
COc1ccccc1CNc1nc(NCc2ccc(C(C)C)cc2)c2sccc2n1	inconclusive: 23.1 µM [cytotoxic, single point]
Cc1cc(N2CCN(S(=O)(=O)c3ccccc3)CC2)c2ccccc2n1	inconclusive: 25.9 µM [cytotoxic, partial curve, poor fit]
O=C(CC1C(=O)NCCN1C(=O)Nc1ccccc1)Nc1cccc(Cl)c1 (centres undefined)	inconclusive: 32.6 µM [rising, single point]
O=c1[nH]nc(SCc2nnc(-c3cccc(Cl)c3)o2)n1C1CCCCC1	inconclusive: 13 µM [cytotoxic, partial curve, poor fit]
COc1cccc(CNC(=O)CSCC(=O)Nc2cc(C)on2)c1	inactive
CCOc1ccc(S(=O)(=O)N(CC(=O)Nc2cccnc2)c2ccc(F)cc2)cc1	inconclusive: 3.66 µM [cytotoxic, partial curve]
COc1cc(NC(=O)Nc2nc(C(N)CCc3ccccc3)cs2)cc(OC)c1OC (centres undefined)	inactive
CC(=O)Nc1ccc(NC(=O)Cn2cc3c(n2)CCCCC3)cc1	inactive
CCOC(=O)c1c(NC(=S)NCc2ccccc2)sc2c1CCN(C(=O)OCC)C2	inconclusive: 32.6 µM [cytotoxic, partial curve, poor fit]
CCOc1ccc(N2C(=O)CC(N(CCc3ccc(OC)c(OC)c3)C(=S)Nc3ccccc3)C2=O)cc1 (centres undefined)	inconclusive: 7.31 µM [cytotoxic, partial curve]
Cc1ccc(C(=O)NNC(=S)NC(=O)c2ccco2)cc1	inconclusive: 7.31 µM [cytotoxic, partial curve]
CCC(=O)Nc1c(C#N)c2nc3ccccc3nc2n1-c1ccc(C)cc1	inconclusive: 20.6 µM [cytotoxic, single point]
Cc1ccc(-c2nc3ccccc3n3nnnc23)cc1	inconclusive: 11.6 µM [cytotoxic, partial curve]

Structure (SMILES)	Potency
CCn1cc(C(=O)NCc2ccc3c(c2)OCO3)c(=O)c2cc(S(=O)(=O)N3CCOCC3)ccc21	inactive
CCc1nc(C#N)c(N2CCCCC2)o1	inconclusive: 20.6 µM [rising, partial curve]
CNC[C@H](Cc1ccccc1)NC[C@@H](Cc1cccc2ccccc12)NCCc1ccc(C)cc1	inconclusive: 3.66 µM [cytotoxic, partial curve, poor fit]
CC(=O)c1sc(NC(=O)CCc2ccccc2)nc1C	inconclusive: 32.6 µM [cytotoxic, single point]
CC(=O)N1CCc2c(sc3c2c(=O)n(Cc2ccccc2)c(=O)n3Cc2cccc(Cl)c2)C1	inconclusive: 25.9 µM [cytotoxic, single point]
COC(=O)c1ccc(Nc2nc(-c3ccc(C)cc3)nc3ccccc23)cc1	inconclusive: 29.1 µM [cytotoxic, single point]
Cc1cc(S(=O)(=O)n2cnc3ccccc32)c(C)cc1Cl	inconclusive: 23.1 µM [rising, single point]
COc1ccc(CNc2nc3c(c(=O)n(Cc4ccc(F)cc4)c(=O)n3C)n2C)cc1	inactive
CCOC(=O)c1c(C)nc2c(c1-c1ccc(OC)cc1)C(=O)CC(C)(C)C2	inconclusive: 16.4 µM [cytotoxic, partial curve, poor fit]
CC(=O)NCCNc1nc2cc(-c3ccc(C)cc3)sc2c(=O)n1C	inconclusive: 20.6 µM [cytotoxic, single point]
Cn1c(=O)c([N+](=O)[O-])c(N2CCN(Cc3ccc4c(c3)OCO4)CC2)c2ccccc21	inconclusive: 18.4 µM [cytotoxic, partial curve]
CC1(C)CC(=O)C2=C(C1)OC(N)=C(C#N)C2c1ccc(OC(=O)N2CCOCC2)cc1 (centres undefined)	inactive
CC1=Nc2cc(C(=O)NC3CCC(C)CC3)ccc2Sc2c(C)ccc(C)c21 (centres undefined)	active: 0.259 µM
c1ccc(-n2nnnc2Sc2n[nH]c(-c3ccncc3)n2)cc1	inactive
CC(NC(=O)c1cc2sccc2n1C)c1ccc2c(c1)OCCO2 (centres undefined)	active: 20.6 µM
COc1ccc(-c2csc(NC(=O)c3cc(C)oc3C)n2)cc1OC	inconclusive: 2.91 µM [cytotoxic, single point]
CCC1=C(OC(=O)N(CC)CC)N2C(=O)OC(=NCCOC)[C@]2(Cc2ccccc2)[C@H]2C1=CC[C@H]1C(=O)NC(=O)[C@H]12	inactive
Cc1ccccc1Cn1cnc2c(oc3ccccc32)c1=O	inconclusive: 9.2 µM [cytotoxic, partial curve]
COc1cccc(NC(=O)CN(C)C(=O)c2cc(-c3ccco3)nc3ccccc23)c1	inactive
Cc1[nH]c2ccccc2c1/C=C/c1ccc2ccccc2n1	inconclusive: 18.4 µM [cytotoxic, single point]
COc1ccc(NC(=O)c2ccc3c(c2)N(Cc2cccc(Cl)c2)C(=O)c2ccccc2S3(=O)=O)cc1Cl	inactive
Cc1ccc(NC(=S)N2CCN(C(=O)C3CCCO3)CC2)cc1 (centres undefined)	inconclusive: 29.1 µM [rising, single point]
Cc1ccc(OCCn2cnc3cc([N+](=O)[O-])ccc3c2=O)cc1	inconclusive: 20.6 µM [cytotoxic, partial curve, poor fit]
